Values of other authors, collected in patent US20250367301A1, “PHARMACEUTICAL COMPOSITION FOR PREVENTING OR TREATING TRIPLE-NEGATIVE BREAST CANCER, COMPRISING OLIGONUCLEOTIDE AS ACTIVE INGREDIENT” (INTEROLIGO CORPORATION, priority 2021, published 2025).
For at least one compound, name, drawing or mass did not settle the structure.

System: TNBC metastasis after surgical resection
Conditions: after 50 days post-insertion of the drug/hydrogel patch at the resection site; mice; cited from earlier work

In the case of `CCOCc1nc2c(N)nc3ccccc3c2n1CC(C)(C)O` [resiquimod], the survival rate is given as 60%.
